In patent US20150337356A1:
Results are given in words; binding and its absence hold for the method and conditions named. For some of these results: In cells and extracts the contact can be indirect. Some binding calls cover weakened binding; strength is not graded here.

The chains behind the UniProt entries cited, without tags or fusion partners. Where a name states a change or a piece, a line headed by the entry shows the natural chain unless it says otherwise. A line that says so, or that is headed by a name, gives the form on record, which may keep a tag or linker. Residues count along the entry.
UniProt P78536: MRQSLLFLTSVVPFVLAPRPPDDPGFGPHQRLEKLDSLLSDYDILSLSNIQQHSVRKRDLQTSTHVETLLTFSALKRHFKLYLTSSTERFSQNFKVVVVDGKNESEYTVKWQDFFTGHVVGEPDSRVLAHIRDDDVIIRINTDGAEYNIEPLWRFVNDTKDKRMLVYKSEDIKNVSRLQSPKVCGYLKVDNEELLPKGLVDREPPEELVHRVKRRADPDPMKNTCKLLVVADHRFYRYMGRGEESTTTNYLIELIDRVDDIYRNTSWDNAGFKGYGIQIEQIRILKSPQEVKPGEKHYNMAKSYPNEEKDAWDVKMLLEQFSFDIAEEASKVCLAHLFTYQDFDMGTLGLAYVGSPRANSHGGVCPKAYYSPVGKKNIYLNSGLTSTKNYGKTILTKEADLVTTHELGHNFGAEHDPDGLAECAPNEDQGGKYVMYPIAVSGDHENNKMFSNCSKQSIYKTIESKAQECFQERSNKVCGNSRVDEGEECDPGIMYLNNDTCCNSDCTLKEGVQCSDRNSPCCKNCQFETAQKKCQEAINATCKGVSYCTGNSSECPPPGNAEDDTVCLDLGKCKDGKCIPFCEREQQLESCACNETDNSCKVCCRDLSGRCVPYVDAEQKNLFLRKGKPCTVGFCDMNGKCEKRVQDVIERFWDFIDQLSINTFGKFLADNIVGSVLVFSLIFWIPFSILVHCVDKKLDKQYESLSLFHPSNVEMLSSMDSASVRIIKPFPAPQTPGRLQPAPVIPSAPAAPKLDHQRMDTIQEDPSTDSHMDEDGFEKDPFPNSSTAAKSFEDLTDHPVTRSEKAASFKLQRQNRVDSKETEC
inactive TACE precursor (135 kD): residues 18-824 of P78536
active form of TACE (95 kD): residues 215-824 of P78536
UniProt O14672, residues 214-748: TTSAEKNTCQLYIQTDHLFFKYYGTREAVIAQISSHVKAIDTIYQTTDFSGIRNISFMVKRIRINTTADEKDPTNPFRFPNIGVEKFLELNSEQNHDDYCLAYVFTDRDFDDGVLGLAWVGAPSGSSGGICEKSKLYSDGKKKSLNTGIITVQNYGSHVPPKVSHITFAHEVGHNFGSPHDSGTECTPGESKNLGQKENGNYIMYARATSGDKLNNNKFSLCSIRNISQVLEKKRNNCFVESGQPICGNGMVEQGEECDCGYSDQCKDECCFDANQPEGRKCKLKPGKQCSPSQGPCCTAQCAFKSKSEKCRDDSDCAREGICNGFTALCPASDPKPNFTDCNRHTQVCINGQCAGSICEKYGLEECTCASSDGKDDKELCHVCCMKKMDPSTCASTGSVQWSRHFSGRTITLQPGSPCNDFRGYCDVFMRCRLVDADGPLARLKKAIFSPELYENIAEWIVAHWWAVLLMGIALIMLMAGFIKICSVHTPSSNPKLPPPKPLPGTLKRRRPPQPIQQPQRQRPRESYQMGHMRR
UniProt O75530: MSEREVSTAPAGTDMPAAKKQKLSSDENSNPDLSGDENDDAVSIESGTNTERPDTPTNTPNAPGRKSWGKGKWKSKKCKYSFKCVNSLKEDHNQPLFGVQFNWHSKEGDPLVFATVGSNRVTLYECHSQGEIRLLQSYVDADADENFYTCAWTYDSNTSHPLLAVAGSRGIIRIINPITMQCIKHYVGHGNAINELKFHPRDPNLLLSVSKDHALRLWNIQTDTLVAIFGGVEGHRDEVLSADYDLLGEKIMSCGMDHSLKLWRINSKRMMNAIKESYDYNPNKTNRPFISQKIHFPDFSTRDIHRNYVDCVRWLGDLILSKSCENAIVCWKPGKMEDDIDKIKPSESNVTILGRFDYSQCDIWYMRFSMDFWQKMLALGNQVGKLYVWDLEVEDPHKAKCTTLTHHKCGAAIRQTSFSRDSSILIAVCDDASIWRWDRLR
paxillin (wild type) (P49023, form named): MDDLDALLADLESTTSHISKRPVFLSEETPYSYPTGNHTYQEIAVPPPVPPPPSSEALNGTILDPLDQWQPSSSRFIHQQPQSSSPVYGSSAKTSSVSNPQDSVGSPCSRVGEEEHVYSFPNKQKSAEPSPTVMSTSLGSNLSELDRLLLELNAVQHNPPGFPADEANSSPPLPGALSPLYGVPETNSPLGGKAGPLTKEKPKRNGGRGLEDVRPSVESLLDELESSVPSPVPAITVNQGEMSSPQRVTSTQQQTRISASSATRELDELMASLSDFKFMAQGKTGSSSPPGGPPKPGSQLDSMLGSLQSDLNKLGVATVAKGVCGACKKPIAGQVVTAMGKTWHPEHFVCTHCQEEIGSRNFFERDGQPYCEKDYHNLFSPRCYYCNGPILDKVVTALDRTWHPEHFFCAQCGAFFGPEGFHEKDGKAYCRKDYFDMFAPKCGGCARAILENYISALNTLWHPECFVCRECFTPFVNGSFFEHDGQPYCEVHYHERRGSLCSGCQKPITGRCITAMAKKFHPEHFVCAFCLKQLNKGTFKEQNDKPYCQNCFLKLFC

Tests used:
[1] = biological target: inactive TACE precursor (135 kD) (UniProt P78536); experiment: co-immunoprecipitation (summary of results)
[2] = biological target: inactive TACE precursor (135 kD) (UniProt P78536); experiment: co-immunoprecipitation from transfected 293T cells, immunoblot for TACE (FIG. 1E)
[3] = biological target: active form of TACE (95 kD) (UniProt P78536); experiment: co-immunoprecipitation from 293T cells coexpressing all NAKC components, immunoblot for TACE (FIG. 1E); also seen on immunoprecipitation of endogenous paxillin
active form of ADAM10 = active form of ADAM10 (UniProt O14672); experiment: immunoprecipitation of paxillin from melanoma cell lines ML1 and ML3, blot for ADAM10 (FIG. 4C)

| Substance | binding [1] | binding [2] | binding [3] | binding (active form of ADAM10) |
| --- | --- | --- | --- | --- |
| polycomb protein Eed (from UniProt O75530 1-441) | binds | binds |  |  |
| paxillin (wild type) (from UniProt P49023 1-557) |  |  | binds | binds |
